Reference: paper PMC6974145
No constants are given. Whether binding was seen depends on the method and setting. Tags and fused reporters may be left off the sequences shown.

Biological target: T1, GST-IFNAR1cyt (GST fusion protein containing the cytoplasmic domain of IFNAR1) (UniProt P17181)
T1 sequence: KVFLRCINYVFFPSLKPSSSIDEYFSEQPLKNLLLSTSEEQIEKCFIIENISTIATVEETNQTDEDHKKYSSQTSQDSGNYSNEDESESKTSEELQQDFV
Assay: pull-down; about 2 ug GST fusion protein bound to glutathione-Sepharose, His-tagged protein in solution; 100 ul binding buffer (0.1% Nonidet P-40, 10% glycerol, 50 mM NaCl, 50 mM Tris-HCl pH 8, 1 mM DTT) with 0.5% BSA and protease inhibitors, 60 min at 4°C; three washes; immunoblot with TYK2 Abs; both …

binding: no binding
B1: His-TYK2-FERM-SH2 ΔE8 (N-ter portion of TYK2, aa 1-591, lacking the exon 8-encoded aa 338-403) (domain or fragment, UniProt P29597)
chain: MPLRHWGMARGSKPVGDGAQPMAAMGGLKVLLHWAGPGGGEPWVTFSESSLTAEEVCIHIAHKVGITPPCFNLFALFDAQAQVWLPPNHILEIPRDASLMLYFRIRFYFRNWHGMNPREPAVYRCGPPGTEASSDQTAQGMQLLDPASFEYLFEQGKHEFVNDVASLWELSTEEEIHHFKNESLGMAFLHLCHLALRHGIPLEEVAKKTSFKDCIPRSFRRHIRQHSALTRLRLRNVFRRFLRDFQPGRLSQQMVMVKYLATLERLAPRFGTERVPVCHLRLLAQAEGEPCYIRDSGVAPTDPGPESAAGPPTHEVLVTGTGGIQWWPVEEEVNKEEELSLPSRAAALSFVSLVDGYFRLTADSSHYLCHEVAPPRLVMSIRDGIHGPLLEPFVQAKLRPEDGLYLIHWSTSHPYRLILTVAQRSQAPDGMQSLRLRKFPIEQQDGAFVLEGWGRSFPSVRELGAALQGCLLRAGDDCFSLRRCCLPQPGETSNLIIMRGARASPRTLNLSQLSFHRVDQKEITQ
